{
  "source": "patent US20220304957A1",
  "about": "“ANTI-CANCER COMPOSITIONS AND METHODS OF USE” (Board of Supervisors of Louisiana State University and …, priority 2019, published 2022)",
  "key": {"[1]": {"tested_on": "mitochondrial respiration and glycolysis in LN-229 human glioblastoma cells", "test": "Metabolic parameters, Extracellular Flux Analyzer (OCR/ECAR)", "type": "cell-based", "settings": "25 μM, LN229", "description": "Metabolic responses of LN-229 human glioblastoma cells were evaluated with Extracellular Flux Analyzer XF24 (Seahorse Biosciences, North Billerica, Mass.). Prior each assay the cells were plated at 4×10^4 cells/well in 24-well plates in growth supporting media. At the time of measurement, growth media were replaced with serum-free XF medium (Seahorse) in cartridges equipped with oxygen-sensitive and pH-sensitive fluorescent probes. The oxygen consumption rate (OCR; indicative of mitochondrial respiration) and acidification rate (ECAR; indicative of glycolysis) were evaluated after injecting the following metabolic toxins: oligomycin, FCCP; rotenone; and antimycin A. Immediate metabolic effects were determined by comparing OCR and ECAR values in cells pre-incubated with DMSO (vehicle), or with PP1 and FF, all used at 25 μM. A: Representative experiment in which real OCR (pmol/min) and ECAR (mpH/min) values are shown. Other relevant metabolic parameters calculated from this experiment include ATP production, Spare Respiratory Capacity, basal OCR levels and proton leak. B: Average OCR and ECAR data (% change over basal OCR and ECAR values) from three independent experiments repeated 5 times (n=15).\nEvaluation of metabolic parameters—Metabolic responses of human glioblastoma cells were evaluated with Extracellular Flux Analyzer XFe24 (Agilent Technologies). […]"}, "[2]": {"tested_on": "LN-229 human glioblastoma cells", "settings": "cited from earlier work"}, "[3]": {"tested_on": "LN-229 human glioblastoma cells", "settings": "25 μM"}},
  "note": "At least one compound was matched to its structure with a doubt left.",
  "data": [
    {"smiles": "CC(C)OC(=O)C(C)(C)Oc1ccc(C(=O)c2ccc(Cl)cc2)cc1", "note": "[FF, fenofibrate, reference compound]", "values": [
      {"measurement": "extracellular acidification rate (ECAR)", "setting": "[1]", "value": "corresponding increases in ECAR"},
      {"measurement": "oxygen consumption rate (OCR)", "setting": "[1]", "value": "dramatic decrease of OCR values"},
      {"measurement": "concentration required for antitumoral activity", "setting": "[2]", "value": 50, "unit": "µM"},
      {"measurement": "cytostatic effect", "setting": "[3]", "value": "cytostatic"}
    ]}
  ]
}
